Reference: PubChem BioAssay AID248 (DTP/NCI, 2004)
The list is a part of this screen's results and no random one: it gathers tests that were run many times, whatever their T/C, doses with no T/C, and many T/C values between a quarter and a half above the control. Other doses and runs of a compound stand elsewhere. T/C: endpoint of the treated group in % of that of the vehicle group. Some doses have a count of surviving animals in place of a T/C: the source files T/C as zero there, which appears to mark a toxic dose or a test without result, not a measured value. Some doses without a T/C left all or most animals alive at the check, yet need not have been tolerated: the source hardly ever lists a survival T/C far under the control, and the zero likely stands for such cases as well. Survivors were counted at the toxicity check, usually on the fifth day, unless a day is given; later deaths do not show. Schedules are NCI's codes, taken here to give the interval after Q, in days (D) or hours (H), and the number of doses after X. Some entries hold several experiments; the results are listed from low to high. Some schedule codes hold Z or #, which are not explained here. Where survival is the endpoint, the PubChem record calls one and a half times the control and up active, and a quarter to a half above the control has no call in these data; cut-offs in other NCI protocols can differ. Some T/C values carry the count of animals alive at the toxicity check (mostly the fifth day); where none is given, no animal had died by that day.

Test system: L1210 leukemia ip in BDF1 mice, survival T/C
Experiment: NCI In Vivo Anticancer Drug Screen. Data for tumor model L1210 Leukemia (intraperitoneal) in B6D2F1 (BDF1) mice
Settings: T/C endpoint: mean survival time, higher T/C = longer survival
[1] = dose: 200.0 mg/kg/injection, schedule: Q01DX009 (ip), vehicle: carboxymethylcellulose (CMC)
[2] = dose: 400.0 mg/kg/injection, schedule: Q04DX002 (ip), vehicle: Klucel (hydroxypropylcellulose) (HPC)
[3] = dose: 400.0 mg/kg/injection, schedule: Q04DX002 (ip), vehicle: carboxymethylcellulose (CMC)
[4] = dose: 400.0 mg/kg/injection, schedule: Q01DX001 (ip), vehicle: saline
[5] = dose: 200.0 mg/kg/injection, schedule: Q04DX002 (ip), vehicle: Klucel (hydroxypropylcellulose) (HPC)
[6] = dose: 400.0 mg/kg/injection, schedule: Q04DX003 (ip), vehicle: saline with Tween-80
[7] = dose: 100.0 mg/kg/injection, schedule: Q04DX002 (ip), vehicle: Klucel (hydroxypropylcellulose) (HPC)

Cc1cc(OCc2nc(N)nc(N)c2-c2ccc(Cl)c(Cl)c2)ccc1NC(=O)c1ccc(S(=O)(=O)F)cc1
survivor count (dose: 150.0 mg/kg/injection, schedule: Q01DX001 (ip), vehicle: saline with Tween-80): 6 of 6
survivor count (dose: 300.0 mg/kg/injection, schedule: Q01DX001 (ip), vehicle: saline with Tween-80): 6 of 6

CC1CC(C(C)(C)C)CCC1S (centres undefined)
survivor count (dose: 400.0 mg/kg/injection, schedule: Q01DX009 (ip), vehicle: saline): 4 of 6

CNC(=O)Oc1cc2ccccc2cc1C(=O)Nc1cc(OC)ccc1OC
survivor count (dose: 400.0 mg/kg/injection, schedule: Q01DX009 (ip), vehicle: Klucel (hydroxypropylcellulose) (HPC)): 6 of 6

CCCNC(=O)Oc1c(C)cccc1C
survivor count [1]: 0 of 3
survivor count [2]: 1 of 3
survivor count [3]: 2 of 3 and 4 of 6

COC(CNCc1ccccc1)OC
survivor count (dose: 300.0 mg/kg/injection, schedule: Q01DX001 (ip), vehicle: steroid suspending solution): 1 of 6

c1ccc2c(c1)C[n+]1ccccc1-2
survivor count (dose: 150.0 mg/kg/injection, schedule: Q01DX001 (ip), vehicle: other): 0 of 6
survivor count (dose: 300.0 mg/kg/injection, schedule: Q01DX001 (ip), vehicle: other): 0 of 6

COC1C(O)C(C)OC(OC2CC3CCC4C(CCC5(C)C(C6=CC(=O)OC6)CCC45O)C3(C)C(OC(C)=O)C2)C1O (centres undefined) (tested in a mixture with another compound)
survivor count (dose: 50.0 mg/kg/injection, schedule: Q01DX009 (sc), vehicle: steroid suspending solution): 3 of 6
survivor count (dose: 100.0 mg/kg/injection, schedule: Q01DX009 (sc), vehicle: steroid suspending solution): 0 of 6
survivor count (dose: 200.0 mg/kg/injection, schedule: Q01DX009 (sc), vehicle: steroid suspending solution): 0 of 6

O=C(NCCCCCCCCCCNC(=O)N1CC1)N1CC1
T/C (dose: 1.8 mg/kg/injection, schedule: Q01DX Z (ip), vehicle: carboxymethylcellulose (CMC)): 149 % of control
T/C (dose: 1.8 mg/kg/injection, schedule: Q01DX Z (ip), vehicle: saline): 148 % of control
T/C (dose: 4.0 mg/kg/injection, schedule: Q01DX Z (ip), vehicle: carboxymethylcellulose (CMC)): 126 % of control
T/C (dose: 4.0 mg/kg/injection, schedule: Q01DX Z (ip), vehicle: saline): 131 % of control
survivor count (dose: 6.0 mg/kg/injection, schedule: Q01DX Z (ip), vehicle: carboxymethylcellulose (CMC)): 6 of 6
T/C (dose: 7.0 mg/kg/injection, schedule: Q01DX001 (ip), vehicle: saline): 129 % of control
T/C (dose: 10.0 mg/kg/injection, schedule: Q01DX001 (ip), vehicle: saline): 144 % of control
T/C (dose: 15.0 mg/kg/injection, schedule: Q01DX001 (ip), vehicle: saline): 145 % of control [4 of 6 alive]
survivor count (dose: 100.0 mg/kg/injection, schedule: Q01DX001 (ip), vehicle: saline): 0 of 4
survivor count (dose: 200.0 mg/kg/injection, schedule: Q01DX001 (ip), vehicle: saline): 0 of 4
survivor count [4]: 0 of 4

Cc1cc(C)c2c(c1)CC2N (centres undefined)
survivor count [5]: 0 of 3
survivor count [2]: 0 of 3

CC(=O)NC(C)(NC(=O)CCl)C(=O)O (centres undefined)
survivor count [6]: 5 of 6

ClCCN(CCCCCCN(CCCl)Cc1ccccc1)Cc1ccccc1
survivor count (dose: 10.0 mg/kg/injection, schedule: Q04DX002 (ip), vehicle: Klucel (hydroxypropylcellulose) (HPC)): 1 of 3
survivor count (dose: 20.0 mg/kg/injection, schedule: Q04DX002 (ip), vehicle: Klucel (hydroxypropylcellulose) (HPC)): 0 of 3
survivor count (dose: 40.0 mg/kg/injection, schedule: Q04DX002 (ip), vehicle: Klucel (hydroxypropylcellulose) (HPC)): 0 of 3
survivor count [7]: 1 of 3
survivor count [5]: 0 of 3
survivor count [2]: 0 of 3

NOCc1csc(Nc2ccccc2)n1
survivor count (dose: 400.0 mg/kg/injection, schedule: Q04DX003 (ip), vehicle: saline): 0 of 6

CCCCNC1=C(N2CC2)C(=O)C(NCCCC)=C(N2CC2)C1=O
T/C (dose: 5.0 mg/kg/injection, schedule: Q01DX009 (ip), vehicle: saline): 130 % of control
T/C (dose: 6.25 mg/kg/injection, schedule: Q04DX003 (ip), vehicle: Klucel (hydroxypropylcellulose) (HPC)): 129 % of control
T/C (dose: 8.2 mg/kg/injection, schedule: Q04DX003 (ip), vehicle: Klucel (hydroxypropylcellulose) (HPC)): 125 % of control
T/C (dose: 10.0 mg/kg/injection, schedule: Q01DX009 (ip), vehicle: saline): 136 % of control
T/C (dose: 12.5 mg/kg/injection, schedule: Q04DX003 (ip), vehicle: Klucel (hydroxypropylcellulose) (HPC)): 144 % of control
survivor count (dose: 25.0 mg/kg/injection, schedule: Q04DX003 (ip), vehicle: Klucel (hydroxypropylcellulose) (HPC)): 5 of 6

CCC1CCC(N)CC1 (centres undefined)
survivor count (dose: 150.0 mg/kg/injection, schedule: Q01DX001 (ip), vehicle: saline): 3 of 6
survivor count (dose: 300.0 mg/kg/injection, schedule: Q01DX001 (ip), vehicle: saline): 0 of 6

CCOc1ccc(/C=N/Nc2c3ccccc3nc3ccccc23)cc1OCC
survivor count [4]: 4 of 4

CCOC(=O)CCSC
survivor count [6]: 3 of 6

O=C(Nc1nccs1)Nc1cc(C(F)(F)F)ccc1Cl
survivor count [1]: 0 of 3 and 4 of 6
survivor count [3]: 3 of 3 and 6 of 6

CC(C)(C)OC[CH2][Hg][I]
survivor count (dose: 50.0 mg/kg/injection, schedule: Q04DX002 (ip), vehicle: Klucel (hydroxypropylcellulose) (HPC)): 0 of 3
survivor count [7]: 0 of 3
survivor count [5]: 0 of 3
survivor count [2]: 0 of 3

C(=C\C[n+]1ccccc1)/C[n+]1ccccc1
survivor count [4]: 0 of 4

CNC(Cl)(Cl)NC
survivor count (dose: 200.0 mg/kg/injection, schedule: Q01DX009 (ip), vehicle: saline): 3 of 3
survivor count (dose: 400.0 mg/kg/injection, schedule: Q04DX002 (ip), vehicle: saline): 2 of 3

O=[N+]([O-])c1cc(Cl)ccc1S(=O)(=O)F
survivor count (dose: 400.0 mg/kg/injection, schedule: Q04DX003 (ip), vehicle: carboxymethylcellulose (CMC)): 0 of 6

FC(F)(F)c1ccc2c(c1)N(CCCN1CCN(CCN3CCOCC3)CC1)c1ccccc1S2
survivor count (dose: 6.25 mg/kg/injection, schedule: Q01DX009 (ip), vehicle: saline): 6 of 6
survivor count (dose: 12.5 mg/kg/injection, schedule: Q01DX009 (ip), vehicle: saline): 6 of 6
survivor count (dose: 25.0 mg/kg/injection, schedule: Q01DX009 (ip), vehicle: saline): 6 of 6
survivor count (dose: 50.0 mg/kg/injection, schedule: Q04DX003 (ip), vehicle: saline): 5 of 6
survivor count (dose: 100.0 mg/kg/injection, schedule: Q04DX003 (ip), vehicle: saline): 5 of 6
